These are yes or no findings as the source states them, for the method shown.
Target: TdfH on the tdfJ mutant strain MCV928 (Neisseria gonorrhoeae (endogenous in strain MCV928, FA19 background))
Test: far-Western, overlay or dot blot; whole cells (N. gonorrhoeae or E. coli) of a standardized optical density applied to nitrocellulose in a dot blot apparatus, blocked in 5% nonfat dry milk in low-salt TBS, probed 1 h with 0.2 μM S100A7-HRP in blocker, colorimetric (DAB) detection; only the binder purified

B1: horseradish peroxidase (HRP)-labeled S100A7 (protein, UniProt P31151 1-101)
chain: MSNTQAERSIIGMIDMFHKYTRRDDKIEKPSLLTMMKENFPNFLSACDKKGTNYLADVFEKKDKNEDKKIDFSEFLSLLGDIATDYHKQSHGAAPCSGGSQ
- binding: no binding (tested: 0.2 μM S100A7-HRP)
